Source: the supplement of paper PMC6411743
± gives the standard deviation of the averaged measurements. The list shows a part of the results, in another mix than the full data. Most values lie at the level of the controls, where differences are scatter.

Sequences of proteins named here, by UniProt entry; tags and fusion partners are left off. A change or cut given only in a name is not applied to a line headed by its entry.
UniProt Q14168: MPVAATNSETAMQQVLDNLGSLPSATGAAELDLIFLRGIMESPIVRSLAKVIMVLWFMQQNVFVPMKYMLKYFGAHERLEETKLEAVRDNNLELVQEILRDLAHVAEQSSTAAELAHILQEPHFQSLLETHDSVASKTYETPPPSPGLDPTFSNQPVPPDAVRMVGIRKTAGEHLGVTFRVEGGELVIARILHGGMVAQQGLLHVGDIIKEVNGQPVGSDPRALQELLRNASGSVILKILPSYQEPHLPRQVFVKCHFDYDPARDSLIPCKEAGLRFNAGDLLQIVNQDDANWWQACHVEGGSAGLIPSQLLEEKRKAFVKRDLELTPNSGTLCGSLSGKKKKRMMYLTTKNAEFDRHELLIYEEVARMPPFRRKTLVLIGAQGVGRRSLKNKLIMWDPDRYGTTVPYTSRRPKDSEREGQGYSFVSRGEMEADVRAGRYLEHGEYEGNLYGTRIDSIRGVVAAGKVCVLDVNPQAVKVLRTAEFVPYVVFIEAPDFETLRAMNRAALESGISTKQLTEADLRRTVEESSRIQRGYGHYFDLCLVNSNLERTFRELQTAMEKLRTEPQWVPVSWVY
UniProt P57105: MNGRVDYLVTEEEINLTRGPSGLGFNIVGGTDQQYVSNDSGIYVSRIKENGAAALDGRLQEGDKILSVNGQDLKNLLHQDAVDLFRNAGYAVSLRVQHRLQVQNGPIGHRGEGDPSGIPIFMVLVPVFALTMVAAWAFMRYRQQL
UniProt Q9Y314: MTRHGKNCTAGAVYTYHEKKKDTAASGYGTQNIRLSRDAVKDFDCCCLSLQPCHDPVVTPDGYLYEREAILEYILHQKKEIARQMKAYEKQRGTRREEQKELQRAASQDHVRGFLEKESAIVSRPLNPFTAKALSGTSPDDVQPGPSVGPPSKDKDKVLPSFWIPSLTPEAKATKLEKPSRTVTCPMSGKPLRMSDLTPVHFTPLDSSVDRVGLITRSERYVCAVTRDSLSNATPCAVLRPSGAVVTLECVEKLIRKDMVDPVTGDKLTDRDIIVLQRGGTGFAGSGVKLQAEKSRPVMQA
UniProt Q13309, whole entry: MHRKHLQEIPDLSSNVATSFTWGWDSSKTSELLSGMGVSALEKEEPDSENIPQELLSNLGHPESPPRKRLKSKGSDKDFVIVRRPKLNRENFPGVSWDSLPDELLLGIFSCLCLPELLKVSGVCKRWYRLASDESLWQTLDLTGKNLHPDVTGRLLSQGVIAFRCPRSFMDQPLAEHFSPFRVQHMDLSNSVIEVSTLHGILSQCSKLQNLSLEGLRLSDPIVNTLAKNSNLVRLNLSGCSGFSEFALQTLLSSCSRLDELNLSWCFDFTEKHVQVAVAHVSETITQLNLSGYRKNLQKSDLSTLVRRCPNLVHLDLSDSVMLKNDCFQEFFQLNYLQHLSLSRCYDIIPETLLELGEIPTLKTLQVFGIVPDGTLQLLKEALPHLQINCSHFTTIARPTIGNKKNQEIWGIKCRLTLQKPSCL
UniProt P36969, whole entry: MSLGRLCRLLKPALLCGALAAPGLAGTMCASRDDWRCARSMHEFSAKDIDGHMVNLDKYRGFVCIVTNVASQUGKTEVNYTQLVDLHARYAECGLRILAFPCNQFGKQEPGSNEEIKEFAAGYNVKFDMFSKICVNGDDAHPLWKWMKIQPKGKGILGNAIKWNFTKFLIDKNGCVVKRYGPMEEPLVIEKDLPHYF
UniProt Q9BXJ9: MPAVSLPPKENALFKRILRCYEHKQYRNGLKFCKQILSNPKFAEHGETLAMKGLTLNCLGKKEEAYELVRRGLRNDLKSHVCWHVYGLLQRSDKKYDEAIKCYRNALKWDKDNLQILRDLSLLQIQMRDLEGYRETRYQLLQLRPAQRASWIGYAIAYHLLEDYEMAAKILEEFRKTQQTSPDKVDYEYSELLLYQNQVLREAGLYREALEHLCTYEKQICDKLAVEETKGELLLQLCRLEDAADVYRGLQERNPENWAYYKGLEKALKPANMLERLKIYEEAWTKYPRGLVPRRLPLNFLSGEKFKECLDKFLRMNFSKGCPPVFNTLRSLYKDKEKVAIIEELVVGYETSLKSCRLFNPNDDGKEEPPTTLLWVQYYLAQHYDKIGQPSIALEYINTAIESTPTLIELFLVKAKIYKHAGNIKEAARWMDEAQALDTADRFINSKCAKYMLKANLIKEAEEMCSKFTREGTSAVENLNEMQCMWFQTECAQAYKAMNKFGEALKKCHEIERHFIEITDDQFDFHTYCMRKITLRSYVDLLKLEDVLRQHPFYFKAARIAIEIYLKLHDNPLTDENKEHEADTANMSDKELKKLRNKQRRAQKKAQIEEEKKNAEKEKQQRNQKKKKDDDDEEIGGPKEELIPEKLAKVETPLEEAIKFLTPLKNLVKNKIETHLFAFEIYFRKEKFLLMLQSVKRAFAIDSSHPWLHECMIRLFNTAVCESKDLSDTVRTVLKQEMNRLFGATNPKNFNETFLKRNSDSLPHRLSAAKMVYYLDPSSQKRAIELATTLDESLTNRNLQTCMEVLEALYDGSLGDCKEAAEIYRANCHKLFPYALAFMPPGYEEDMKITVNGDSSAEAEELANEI
UniProt Q13555: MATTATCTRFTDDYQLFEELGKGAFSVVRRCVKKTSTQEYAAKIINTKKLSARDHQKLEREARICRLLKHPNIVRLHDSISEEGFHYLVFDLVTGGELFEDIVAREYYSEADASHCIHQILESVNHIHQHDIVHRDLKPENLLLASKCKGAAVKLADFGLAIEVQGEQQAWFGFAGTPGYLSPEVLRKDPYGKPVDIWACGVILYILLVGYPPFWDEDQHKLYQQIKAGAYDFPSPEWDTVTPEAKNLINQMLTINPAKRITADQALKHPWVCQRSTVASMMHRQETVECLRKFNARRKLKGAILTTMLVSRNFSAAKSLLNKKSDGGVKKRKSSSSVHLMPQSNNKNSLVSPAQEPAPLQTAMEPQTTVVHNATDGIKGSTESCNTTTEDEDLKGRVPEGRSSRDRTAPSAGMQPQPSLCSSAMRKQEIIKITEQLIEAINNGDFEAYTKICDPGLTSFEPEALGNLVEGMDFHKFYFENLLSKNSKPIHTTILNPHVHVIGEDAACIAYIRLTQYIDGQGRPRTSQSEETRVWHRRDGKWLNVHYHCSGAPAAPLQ
UniProt Q9NXU5: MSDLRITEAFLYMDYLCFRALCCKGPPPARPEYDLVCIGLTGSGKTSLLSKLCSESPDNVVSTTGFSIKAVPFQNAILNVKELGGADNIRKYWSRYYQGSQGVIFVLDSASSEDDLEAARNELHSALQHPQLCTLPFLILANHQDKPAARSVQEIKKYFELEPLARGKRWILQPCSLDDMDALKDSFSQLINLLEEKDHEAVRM
UniProt P46013: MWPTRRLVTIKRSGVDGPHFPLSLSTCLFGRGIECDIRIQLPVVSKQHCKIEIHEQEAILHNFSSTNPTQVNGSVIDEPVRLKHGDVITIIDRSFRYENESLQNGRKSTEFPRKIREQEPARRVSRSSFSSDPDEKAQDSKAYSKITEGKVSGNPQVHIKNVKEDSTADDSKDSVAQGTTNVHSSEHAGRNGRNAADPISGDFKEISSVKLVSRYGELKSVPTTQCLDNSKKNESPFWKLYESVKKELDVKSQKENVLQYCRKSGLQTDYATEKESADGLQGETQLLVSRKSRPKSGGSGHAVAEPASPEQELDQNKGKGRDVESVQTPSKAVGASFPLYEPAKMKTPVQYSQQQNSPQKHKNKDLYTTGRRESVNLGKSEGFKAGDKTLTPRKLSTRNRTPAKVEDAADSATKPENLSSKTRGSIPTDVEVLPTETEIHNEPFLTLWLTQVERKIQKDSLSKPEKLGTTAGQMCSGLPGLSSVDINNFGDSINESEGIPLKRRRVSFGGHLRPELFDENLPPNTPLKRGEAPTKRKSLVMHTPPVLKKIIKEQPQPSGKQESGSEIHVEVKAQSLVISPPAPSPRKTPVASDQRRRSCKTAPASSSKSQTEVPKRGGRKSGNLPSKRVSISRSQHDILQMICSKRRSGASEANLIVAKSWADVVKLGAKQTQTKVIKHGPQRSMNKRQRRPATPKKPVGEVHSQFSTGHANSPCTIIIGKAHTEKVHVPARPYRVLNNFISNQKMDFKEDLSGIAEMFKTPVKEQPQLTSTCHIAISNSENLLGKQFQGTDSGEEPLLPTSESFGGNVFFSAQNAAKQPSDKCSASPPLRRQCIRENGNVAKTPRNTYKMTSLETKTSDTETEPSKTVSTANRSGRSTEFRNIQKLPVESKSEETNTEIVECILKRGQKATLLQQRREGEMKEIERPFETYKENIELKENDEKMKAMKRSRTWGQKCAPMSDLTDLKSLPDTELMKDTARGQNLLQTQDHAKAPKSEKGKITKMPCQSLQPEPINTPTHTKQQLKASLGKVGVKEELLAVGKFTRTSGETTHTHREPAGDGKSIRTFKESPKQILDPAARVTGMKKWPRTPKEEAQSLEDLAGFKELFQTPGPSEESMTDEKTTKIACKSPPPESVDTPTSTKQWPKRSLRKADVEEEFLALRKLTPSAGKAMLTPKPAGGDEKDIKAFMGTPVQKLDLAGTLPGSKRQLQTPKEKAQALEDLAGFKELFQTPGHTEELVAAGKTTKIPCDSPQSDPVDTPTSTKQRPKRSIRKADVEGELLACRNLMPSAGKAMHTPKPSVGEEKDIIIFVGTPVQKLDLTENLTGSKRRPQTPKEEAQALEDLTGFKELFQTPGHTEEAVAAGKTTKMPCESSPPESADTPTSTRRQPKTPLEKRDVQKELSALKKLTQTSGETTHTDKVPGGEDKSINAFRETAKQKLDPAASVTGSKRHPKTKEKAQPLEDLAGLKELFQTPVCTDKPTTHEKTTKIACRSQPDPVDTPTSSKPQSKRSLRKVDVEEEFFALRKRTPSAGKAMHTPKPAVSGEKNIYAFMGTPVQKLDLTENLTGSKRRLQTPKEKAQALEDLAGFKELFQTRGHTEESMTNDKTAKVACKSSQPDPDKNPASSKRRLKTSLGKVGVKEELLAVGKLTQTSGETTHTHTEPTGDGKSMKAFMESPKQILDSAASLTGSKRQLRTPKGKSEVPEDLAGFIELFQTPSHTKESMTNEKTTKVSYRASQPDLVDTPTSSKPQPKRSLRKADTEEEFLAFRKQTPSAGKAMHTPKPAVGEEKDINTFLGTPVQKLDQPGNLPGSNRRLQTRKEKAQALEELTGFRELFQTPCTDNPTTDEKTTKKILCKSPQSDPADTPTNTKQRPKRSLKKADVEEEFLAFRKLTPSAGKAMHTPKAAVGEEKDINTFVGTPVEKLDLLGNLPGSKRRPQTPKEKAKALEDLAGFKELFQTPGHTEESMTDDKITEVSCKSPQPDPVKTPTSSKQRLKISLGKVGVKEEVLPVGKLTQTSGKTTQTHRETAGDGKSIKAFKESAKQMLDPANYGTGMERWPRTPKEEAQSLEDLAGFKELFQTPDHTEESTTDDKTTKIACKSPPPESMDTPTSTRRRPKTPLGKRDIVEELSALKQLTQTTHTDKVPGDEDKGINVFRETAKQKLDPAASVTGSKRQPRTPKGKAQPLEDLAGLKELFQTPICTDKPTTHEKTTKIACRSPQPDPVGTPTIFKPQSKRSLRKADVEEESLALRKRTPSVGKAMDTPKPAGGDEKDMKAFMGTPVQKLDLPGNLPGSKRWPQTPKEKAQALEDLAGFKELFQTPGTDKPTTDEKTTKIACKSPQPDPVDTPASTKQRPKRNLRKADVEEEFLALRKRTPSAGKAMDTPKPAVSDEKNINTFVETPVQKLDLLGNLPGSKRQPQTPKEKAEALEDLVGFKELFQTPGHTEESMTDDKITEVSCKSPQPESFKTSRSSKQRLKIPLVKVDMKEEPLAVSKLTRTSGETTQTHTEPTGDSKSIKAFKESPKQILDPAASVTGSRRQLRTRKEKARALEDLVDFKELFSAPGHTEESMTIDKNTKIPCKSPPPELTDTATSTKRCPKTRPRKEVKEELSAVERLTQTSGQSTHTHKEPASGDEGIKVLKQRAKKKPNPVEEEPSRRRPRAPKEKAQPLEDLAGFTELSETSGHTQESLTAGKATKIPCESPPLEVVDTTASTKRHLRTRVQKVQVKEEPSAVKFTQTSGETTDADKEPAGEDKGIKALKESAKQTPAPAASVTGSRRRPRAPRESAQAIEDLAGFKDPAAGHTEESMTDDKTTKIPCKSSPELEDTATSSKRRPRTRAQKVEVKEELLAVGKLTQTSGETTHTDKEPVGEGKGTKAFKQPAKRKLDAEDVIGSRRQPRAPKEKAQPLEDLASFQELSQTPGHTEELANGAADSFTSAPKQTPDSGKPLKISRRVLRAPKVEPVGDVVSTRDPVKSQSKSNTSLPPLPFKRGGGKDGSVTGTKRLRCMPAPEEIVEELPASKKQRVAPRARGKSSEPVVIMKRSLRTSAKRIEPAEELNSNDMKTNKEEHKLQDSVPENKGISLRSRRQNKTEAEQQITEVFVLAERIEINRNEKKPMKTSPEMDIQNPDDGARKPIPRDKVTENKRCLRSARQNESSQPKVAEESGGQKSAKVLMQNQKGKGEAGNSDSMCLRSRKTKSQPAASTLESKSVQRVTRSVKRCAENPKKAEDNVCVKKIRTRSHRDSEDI

Compound: Nc1ncnc2c1ncn2[C@@H]1O[C@H](COP(=O)(O)OP(=O)(O)OP(=O)(O)O)[C@@H](O)[C@H]1O [adenosine triphosphate]
Test: NP40-soluble protein abundance relative to vehicle (solubility fold change) (ratio); higher = more soluble protein in presence of ATP
Method in brief: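 Each value is a fold change relative to the detergent-processed vehicle, calculated per replicate from vsn-normalised intensities. Jurkat crude lysate received eight concentrations (0.1 to 10 mM) for 10 min at room temperature and 3 min at 37 °C, then was solubilised in 0.8% NP40 with benzonase (60 min, 4 °C). The ultracentrifuged supernatant was TMT-labelled and run by LC-MS/MS in three independent experiments.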

Target	NP40-soluble protein abundance (concentration: 0.1mM)	NP40-soluble protein abundance (concentration: 0.5mM)
A0A0A0MRU0|A0A0C4DH75|A0A0D9SFF8|B4DZ84 and related entries (UniProt Q14168)	1.05 ± 0.026	1.05 ± 0.045
A0A0A0MTB0|A0A0J9YYI4|D6RHG7 and related entries (UniProt Q86VE9)	0.994 ± 0.067	0.953 ± 0.11
A0A087X211|Q8TCG1 (UniProt Q8TCG1)	1.02 ± 0.058	0.985 ± 0.036
A0A087WUM0|A0A087WYV9|A0A087X1F5 (UniProt P57105)	0.959 ± 0.086	0.9 ± 0.04
A0A075B716|H0YN88 and related entries (UniProt P08708)	0.908 ± 0.12	0.863 ± 0.087
A0A0A0MQT4|Q5QP82 and related entries (UniProt Q5QP82)	1 ± 0.051	1.03 ± 0.11
A0A096LP07|A0A096LPJ3|A8K070 and related entries (UniProt Q13098)	0.943 ± 0.019	0.953 ± 0.059
A0A087X020|Q9Y3A5 (UniProt Q9Y3A5)	1.04 ± 0.069	1.06 ± 0.054
A0A087X1K6|Q9Y2Y9 (UniProt Q9Y2Y9)	0.996 ± 0.052	0.937 ± 0.026
A0A087WZ13|E9PAU2 (UniProt Q8IY67)	0.99 ± 0.013	0.876 ± 0.013
A0A0C4DGS5|B7ZC06 and related entries (UniProt Q08379)	0.974 ± 0.031	0.968 ± 0.036
A0A087WZ97|A0A087WZK6|A0A087X2C2|Q5T7M9 (UniProt Q5T7M9)	0.983 ± 0.064	0.938 ± 0.062
A0A075B6F9|Q9Y314 (UniProt Q9Y314)	0.993 ± 0.045	0.974 ± 0.043
A0A087X0M1|H0YAA8 and related entries (UniProt Q9H204)	0.897 ± 0.26	0.842 ± 0.29
A0A0A0MSB8|Q9UPT5 and related entries (UniProt Q9UPT5)	1.03 ± 0.046	1.03 ± 0.061
A0A0A0MTL5|D6R9R7 and related entries (UniProt Q13309)	1.04 ± 0.056	1.02 ± 0.08
A0A087WXF8|A0A087WXU5|A0A087WYF0|A0A0D9SEW3|Q9NP64 and related entries (UniProt Q9NP64)	0.86 ± 0.11	0.905 ± 0.092
A0A0A0MTP3|Q99550 and related entries (UniProt Q99550)	0.914 ± 0.02	0.923 ± 0.079
A0A087WUI1|Q9Y388 (UniProt Q9Y388)	1.15 ± 0.034	1.15 ± 0.06
A0A0C4DGA6|Q14527 (UniProt Q14527)	1.05 ± 0.036	1.08 ± 0.055
A0A0A0MQS2|F5H0Q6 (UniProt Q8N2M8)	0.997 ± 0.12	1.08 ± 0.15

Single entries from the list:
In NP40-soluble protein abundance (concentration: 0.1mM), A0A087WUM0|A0A087WYV9|A0A087X1F5 (UniProt P57105) has 0.959 ± 0.086
In NP40-soluble protein abundance (concentration: 0.5mM), A0A087X0M1|H0YAA8 and related entries (UniProt Q9H204) has 0.842 ± 0.29

Additional entries:

Target	NP40-soluble protein abundance (concentration: 0.1mM)	NP40-soluble protein abundance (concentration: 0.5mM)
A0A087WTF0|A2A3K4 and related entries (UniProt A2A3K4)	0.992 ± 0.068	1.12 ± 0.26
A0A087WT12|A0A087X2I2|K7ERP4 and related entries (UniProt P36969)	0.984 ± 0.027	0.98 ± 0.017
A0A0A0MSS3|Q5T6P1 and related entries (UniProt Q8ND83)	0.971 ± 0.031	0.948 ± 0.048
A0A087WT59|A0A087WV45|P02766 (UniProt P02766)	0.948 ± 0.11	0.953 ± 0.11
A0A087WTU9|A0A087WZY3|Q8TCU4 and related entries (UniProt Q8TCU4)	0.996 ± 0.096	0.872 ± 0.12
A0A0B4J1W3|Q9BXJ9 (UniProt Q9BXJ9)	1.03 ± 0.056	1.06 ± 0.038
A0A0A0MS52|Q13555-2|Q13555-8|Q13555-9 (UniProt Q13555)	0.989 ± 0.043	1.03 ± 0.062
A0A0C4DGZ1|Q8N5P1 (UniProt Q8N5P1)	0.952 ± 0.041	0.98 ± 0.037
A0A0C4DGV5|O95218 and related entries (UniProt O95218)	0.968 ± 0.019	0.945 ± 0.026
A0A0A0MQR1|Q9Y4K4 (UniProt Q9Y4K4)	1.04 ± 0.021	1.01 ± 0.036
A0A0C4DGZ0|A0A087WWE2 (UniProt P24928)	1.04 ± 0.035	1.08 ± 0.035
A0A087WUL0|Q3LXA3 (UniProt Q3LXA3)	0.979 ± 0.013	0.979 ± 0.013
A0A087X0M4|Q9BWU0 (UniProt Q9BWU0)	1 ± 0.012	1.03 ± 0.072
A0A087WUW9|Q9NXU5 (UniProt Q9NXU5)	1.02 ± 0.013	1.02 ± 0.077
A0A087WVP4|A0A087X1R1|P53814 and related entries (UniProt P53814)	1 ± 0.074	1.03 ± 0.14
A0A087X0W8|Q04206 and related entries (UniProt Q04206)	1.04 ± 0.06	1.009 ± 0.0023
A0A087WUS0|E7ETK0 and related entries (UniProt P62847)	0.877 ± 0.09	0.861 ± 0.12
A0A087WV66|P46013 and related entries (UniProt P46013)	0.994 ± 0.014	1.01 ± 0.039
A0A0A0MRB5|Q8WXG6 and related entries (UniProt Q8WXG6)	0.965 ± 0.028	0.981 ± 0.053
A0A0B4J2F8|A6NFM0 and related entries (UniProt Q9GZM3+Q9H1A7+P52435+F6S314+E2QRJ6+A6NFM0)	0.894 ± 0.092	0.94 ± 0.11
A0A087WXM6|A0A0A6YYL6|J3KRX5 and related entries (UniProt P18621)	0.932 ± 0.14	0.934 ± 0.15
